B1: TGRIA: Variant GRIA (T88/Q89G/W246R/L249I/H250A) of human adenosine A2a receptor (protein, UniProt P29274 1-412, looked up, variant Q89G W246R L249I H250A)
Adenosine receptor A2a: MPIMGSSVYITVELAIAVLAILGNVLVCWAVWLNSNLQNVTNYFVVSLAAADIAVGVLAIPFAITISTGFCAACHGCLFIACFVLVLTGSSIFSLLAIAIDRYIAIRIPLRYNGLVTGTRAKGIIAICWVLSFAIGLTPMLGWNNCGQPKEGKNHSQGCGEGQVACLFEDVVPMNYMVYFNFFACVLVPLLLMLGVYLRIFLAARRQLKQMESQPLPGERARSTLQKEVHAAKSLAIIVGLFALCRLPIAIINCFTFFCPDCSHAPLWLMYLAIVLSHTNSVVNPFIYAYRIREFRQTFRKIIRSHVLRQQEPFKAAGTSARVLAAHGSDGEQVSLRLNGHPPGVWANGSAPHPERRPNGYALGLVSGGSAQESQGNTGLPDVELLSHELKGVCPEPPGLDDPLAQDGAGVS
B2: SLNIG: A2aR variant; letters are residues at T88, Q89, W246, L249, H250 (protein, UniProt P29274 1-412, looked up, variant T88S Q89L W246N L249I H250G)
Adenosine receptor A2a: MPIMGSSVYITVELAIAVLAILGNVLVCWAVWLNSNLQNVTNYFVVSLAAADIAVGVLAIPFAITISTGFCAACHGCLFIACFVLVLSLSSIFSLLAIAIDRYIAIRIPLRYNGLVTGTRAKGIIAICWVLSFAIGLTPMLGWNNCGQPKEGKNHSQGCGEGQVACLFEDVVPMNYMVYFNFFACVLVPLLLMLGVYLRIFLAARRQLKQMESQPLPGERARSTLQKEVHAAKSLAIIVGLFALCNLPIGIINCFTFFCPDCSHAPLWLMYLAIVLSHTNSVVNPFIYAYRIREFRQTFRKIIRSHVLRQQEPFKAAGTSARVLAAHGSDGEQVSLRLNGHPPGVWANGSAPHPERRPNGYALGLVSGGSAQESQGNTGLPDVELLSHELKGVCPEPPGLDDPLAQDGAGVS

Assay: FACS-based screen of A2aR library with deep sequencing (BRIDGE): variant enrichment
Format: cell-based, Saccharomyces cerevisiae

Row | Molecule | fold lower abundance in the PS4 population
1 | B1 | ~ 17 fold
2 | B2 | ~12 fold
